Results taken from publication PMC10247778, “PXL1 and SERKs act as receptor–coreceptor complexes for the CLE19 peptide to regulate pollen development” (Nature Communications, 2023).
No constants are given. Whether binding was seen depends on the method and setting. Binding seen in cells or lysates may run through a third protein. Tags and fused reporters may be left off the sequences shown.

Columns and labels:
Assay in all cases: co-IP; MYC-tagged receptor ∆KD and GFP-tagged SERK ∆KD coexpressed in N. benthamiana leaves; CLE19 (20 μm) infiltrated 3-4 h before; GFP-Trap beads, 4 °C, 4 h; anti-Myc blot
[1] = molecular target: T1, SERK2^∆KD-GFP (SERK2 with kinase domain deletion, GFP-tagged) (Arabidopsis) (UniProt Q9XIC7)
T1 sequence: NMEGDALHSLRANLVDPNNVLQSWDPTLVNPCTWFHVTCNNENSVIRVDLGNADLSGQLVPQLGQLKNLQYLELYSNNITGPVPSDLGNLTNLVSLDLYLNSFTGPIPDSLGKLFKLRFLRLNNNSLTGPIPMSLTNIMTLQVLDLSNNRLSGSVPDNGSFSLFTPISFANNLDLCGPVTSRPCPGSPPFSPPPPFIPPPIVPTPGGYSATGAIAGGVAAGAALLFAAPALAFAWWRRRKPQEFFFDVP

[2] = molecular target: T2, BAK1^∆KD-GFP (SERK3/BAK1 with kinase domain deletion, GFP-tagged) (Arabidopsis) (UniProt Q94F62)
T2 sequence: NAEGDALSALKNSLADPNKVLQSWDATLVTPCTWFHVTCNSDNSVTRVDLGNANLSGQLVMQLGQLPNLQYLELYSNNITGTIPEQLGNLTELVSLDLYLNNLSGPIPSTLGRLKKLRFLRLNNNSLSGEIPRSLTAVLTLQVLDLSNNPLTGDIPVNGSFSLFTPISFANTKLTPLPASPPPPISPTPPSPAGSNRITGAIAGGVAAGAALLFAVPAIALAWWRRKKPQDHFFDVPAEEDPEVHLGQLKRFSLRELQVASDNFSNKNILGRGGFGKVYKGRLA

[3] = molecular target: T3, SERK1^∆KD-GFP (SERK1 with kinase domain deletion, GFP-tagged) (Arabidopsis) (UniProt Q94AG2)
T3 sequence: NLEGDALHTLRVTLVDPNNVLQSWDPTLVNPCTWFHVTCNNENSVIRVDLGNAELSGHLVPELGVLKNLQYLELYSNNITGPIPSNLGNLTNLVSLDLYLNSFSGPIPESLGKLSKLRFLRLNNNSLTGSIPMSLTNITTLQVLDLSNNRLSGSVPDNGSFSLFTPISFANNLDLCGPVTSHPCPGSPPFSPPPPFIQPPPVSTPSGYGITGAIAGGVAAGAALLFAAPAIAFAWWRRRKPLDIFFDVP

Measured: binding

B1: PXL1^R417AR419A∆KD-MYC (domain or fragment, UniProt Q9FRS6 24-713)
chain: ETFQNSEQEILLAFKSDLFDPSNNLQDWKRPENATTFSELVHCHWTGVHCDANGYVAKLLLSNMNLSGNVSDQIQSFPSLQALDLSNNAFESSLPKSLSNLTSLKVIDVSVNSFFGTFPYGLGMATGLTHVNASSNNFSGFLPEDLGNATTLEVLDFRGGYFEGSVPSSFKNLKNLKFLGLSGNNFGGKVPKVIGELSSLETIILGYNGFMGEIPEEFGKLTRLQYLDLAVGNLTGQIPSSLGQLKQLTTVYLYQNRLTGKLPRELGGMTSLVFLDLSDNQITGEIPMEVGELKNLQLLNLMRNQLTGIIPSKIAELPNLEVLELWQNSLMGSLPVHLGKNSPLKWLDVSSNKLSGDIPSGLCYSRNLTKLILFNNSFSGQIPEEIFSCPTLVAVAIQKNHISGSIPAGSGDLPMLQHLELAKNNLTGKIPDDIALSTSLSFIDISFNHLSSLSSSIFSSPNLQTFIASHNNFAGKIPNQIQDRPSLSVLDLSFNHFSGGIPERIASFEKLVSLNLKSNQLVGEIPKALAGMHMLAVLDLSNNSLTGNIPADLGASPTLEMLNVSFNKLDGPIPSNMLFAAIDPKDLVGNNGLCGGVLPPCSKSLALSAKGRNPGRIHVNHAVFGFIVGTSVIVAMGMMFLAGRWIYTRWDLYSNFAREYIFCKKPREEWPWRLVAFQRLCFTAGDILSH
no binding: all assays above

B2: PXY^∆KD-MYC (PXY with kinase domain deletion, MYC-tagged) (domain or fragment, UniProt Q9FII5 30-718)
chain: LKFSPQLLSLLSLKTSLSGPPSAFQDWKVPVNGQNDAVWCSWSGVVCDNVTAQVISLDLSHRNLSGRIPIQIRYLSSLLYLNLSGNSLEGSFPTSIFDLTKLTTLDISRNSFDSSFPPGISKLKFLKVFNAFSNNFEGLLPSDVSRLRFLEELNFGGSYFEGEIPAAYGGLQRLKFIHLAGNVLGGKLPPRLGLLTELQHMEIGYNHFNGNIPSEFALLSNLKYFDVSNCSLSGSLPQELGNLSNLETLFLFQNGFTGEIPESYSNLKSLKLLDFSSNQLSGSIPSGFSTLKNLTWLSLISNNLSGEVPEGIGELPELTTLFLWNNNFTGVLPHKLGSNGKLETMDVSNNSFTGTIPSSLCHGNKLYKLILFSNMFEGELPKSLTRCESLWRFRSQNNRLNGTIPIGFGSLRNLTFVDLSNNRFTDQIPADFATAPVLQYLNLSTNFFHRKLPENIWKAPNLQIFSASFSNLIGEIPNYVGCKSFYRIELQGNSLNGTIPWDIGHCEKLLCLNLSQNHLNGIIPWEISTLPSIADVDLSHNLLTGTIPSDFGSSKTITTFNVSYNQLIGPIPSGSFAHLNPSFFSSNEGLCGDLVGKPCNSDRFNAGNADIDGHHKEERPKKTAGAIVWILAAAIGVGFFVLVAATRCFQKSYGNRVDGGGRNGGDIGPWKLTAFQRLNFTADDVVECL
no binding: all assays above
